Assay results taken from article PMC5479863.
These are yes or no findings as the source states them, for the method shown.

By UniProt entry, the sequences of proteins in these tests, tags left out. Where a name states a change or a piece, a line headed by the entry shows the natural chain unless it says otherwise.
UniProt Q9GZN7: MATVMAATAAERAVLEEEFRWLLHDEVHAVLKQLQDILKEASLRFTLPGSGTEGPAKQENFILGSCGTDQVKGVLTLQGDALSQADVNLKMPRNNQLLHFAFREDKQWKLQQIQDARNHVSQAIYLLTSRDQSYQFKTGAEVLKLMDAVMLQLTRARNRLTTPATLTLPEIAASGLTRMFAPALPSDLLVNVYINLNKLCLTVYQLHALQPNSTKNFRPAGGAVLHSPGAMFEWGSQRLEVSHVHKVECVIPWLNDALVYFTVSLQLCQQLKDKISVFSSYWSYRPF

Experiments:
[1] = target: Human full-length Rogdi (residues 1-287) (human) (UniProt Q9GZN7); experiment: SEC; Superdex 200 column; 25 mM TRIS, 150 mM NaCl, 5 mM DTT, pH 7.5; mass standards aldolase, ovalbumin, carbonic anhydrase, RNase A; both purified
[2] = target: Human full-length Rogdi (residues 1-287) (human) (UniProt Q9GZN7); experiment: AUC; sedimentation equilibrium; 25 mM TRIS-HCl pH 7.5, 150 mM NaCl, 5 mM β-mercaptoethanol; 10, 15 and 20 μM protein; 10000, 20000 and 30000 rpm; 15 °C; fitted to a single species model; both purified
[3] = target: Human full-length Rogdi (residues 1-287) (human) (UniProt Q9GZN7); experiment: crystal structure; full-length Rogdi, space group R3, 2.8 Å, four copies in the asymmetric unit; crystals grown at 4 °C in 2 M NaCl, 130 mM MgCl2, 100 mM TRIS pH 7.0; both purified
[4] = target: Human truncated Rogdi (tRogdi, residues 11-276) (human) (UniProt Q9GZN7); experiment: SEC; Superdex 200 column; 25 mM TRIS, 150 mM NaCl, 5 mM DTT, pH 7.5; mass standards aldolase, ovalbumin, carbonic anhydrase, RNase A; both purified
[5] = target: Human truncated Rogdi (tRogdi, residues 11-276) (human) (UniProt Q9GZN7); experiment: AUC; sedimentation equilibrium; 25 mM TRIS-HCl pH 7.5, 150 mM NaCl, 5 mM β-mercaptoethanol; 10, 15 and 20 μM protein; 10000, 20000 and 30000 rpm; 15 °C; fitted to a single species model; both purified

Human full-length Rogdi (residues 1-287) (from UniProt Q9GZN7 1-287)
binding [1]: no binding
binding [2]: no binding (tested: 10 μM, 15 μM, and 20 μM)
binding [3]: no binding

Human truncated Rogdi (tRogdi, residues 11-276) (from UniProt Q9GZN7 11-276) (domain or fragment)
binding [4]: no binding
binding [5]: no binding (tested: 10 μM, 15 μM, and 20 μM)
